PubChem BioAssay AID504764, Drosophila RNAi Screening Center | 2011

- Screen: 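Genes whose knock-down alters Notch-dependent transcription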 (primary screen)
- System: Drosophila Kc167 cells
- Knock-down reagent: long dsRNA against Drosophila genes
- Timing: about 5 days (4 days dsRNA, then 24 h after transfection)
- Conditions: transfection of constitutively active membrane-tethered Notch lacking the extracellular domain, read 24 h later
- Measurement: 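Firefly luciferase from an E(spl)m3 reporter with active Notch, plus control-promoter and uninduced reporter wells for normalisation; unnormalised counts, duplicate wells a and b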
- Scale: induced reporter light, run 1, well a and induced reporter light, run 1, well b: higher = more light from the Notch target reporter with active Notch; control promoter light, run 1, well a and control promoter light, run 1, well b: higher = more light from the viral control promoter (cell number, transfection, viability); uninduced reporter light, run 1, well a: higher = more light from the Notch target reporter without active Notch
- Active means: 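Wells with low control signal or poorly matching duplicates excluded; duplicates averaged; per source plate, z beyond ±2 for induced/control log2 ratio or beyond ±1.8 for induced/uninduced marks a hit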
- Meaning of the calls: active = modifier hit (raised or lowered Notch signal); inactive = not a hit
In all, the deposit lists about 22,000 reagents; this is an unselected part of those with a known target gene and a result. Of all reagents, 403 (1.9%) got an active call. 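Unnormalised raw counts per well; ratio z-scores behind the hit calls and whether each hit raises or lowers signal are not deposited.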 The numbers tell different reagents against one gene apart. Names joined by + are all predicted targets of the reagent. The record does not give: the amount of reagent.

| induced reporter light, run 1, well a | induced reporter light, run 1, well b | control promoter light, run 1, well a | control promoter light, run 1, well b | uninduced reporter light, run 1, well a | Call | Target gene | reagent no. |
| --- | --- | --- | --- | --- | --- | --- | --- |
| 40615 | 41755 | 54110 | 43230 | 4205 | inactive | CG6472 | 1 |
| 2.05e5 | 2.05e5 | 1.86e5 | 2.02e5 | 17475 | inactive | mRpL4 | 1 |
| 37090 | 36575 | 42950 | 42715 | 6065 | inactive | dnc | 1 |
| 83265 | 1.08e5 | 1.86e5 | 1.63e5 | 6835 | inactive | dnc | 2 |
| 85610 | 95965 | 1.34e5 | 1.63e5 | 7350 | inactive | dnc | 3 |
| 88580 | 68385 | 1.28e5 | 1.42e5 | 6435 | inactive | dnc | 4 |
| 1.67e5 | 1.35e5 | 2.42e5 | 2.59e5 | 9805 | inactive | dnc | 5 |
| 1.35e5 | 1.19e5 | 1.48e5 | 1.33e5 | 12332 | inactive | Syx1A | 1 |
| 1.10e5 | 1.16e5 | 1.07e5 | 1.39e5 | 12660 | inactive | mRpS14 | 1 |
| 1.59e5 | 1.36e5 | 1.94e5 | 2.17e5 | 10140 | inactive | CG1785 | 1 |
| 1.16e5 | 1.40e5 | 1.96e5 | 1.77e5 | 11635 | inactive | Cyp6a18 | 1 |
| 1.46e5 | 1.68e5 | 1.99e5 | 1.78e5 | 10640 | inactive | CG33296 | 1 |
| 95080 | 98250 | 1.28e5 | 1.58e5 | 7175 | inactive | brv3 | 1 |
| 58070 | 43535 | 59565 | 71345 | 4135 | inactive | CG14180 (retired record) | 1 |
| 64610 | 70085 | 58790 | 54850 | 5005 | inactive | CG3906 | 1 |
| 1.63e5 | 1.77e5 | 2.32e5 | 2.68e5 | 16005 | inactive | Ddrgk1 | 1 |
| 1.47e5 | 1.51e5 | 1.36e5 | 1.50e5 | 16042 | inactive | IntS4 | 1 |
| 52420 | 33620 | 41350 | 62780 | 1810 | inactive | Oatp58Da | 1 |
| 1.51e5 | 1.42e5 | 2.06e5 | 1.43e5 | 7875 | inactive | nkt | 1 |
| 1.42e5 | 1.36e5 | 1.65e5 | 1.35e5 | 12150 | inactive | CG30377 | 1 |
| 26830 | 26725 | 30755 | 27410 | 7150 | inactive | CG30377 | 2 |
| 1.00e5 | 1.05e5 | 85645 | 1.06e5 | 14655 | inactive | kek5 | 1 |
| 1.11e5 | 1.11e5 | 1.71e5 | 2.04e5 | 10305 | inactive | CG14416 | 1 |
| 1.25e5 | 1.29e5 | 2.39e5 | 2.47e5 | 8725 | inactive | Uch-L5R | 1 |
| 82250 | 1.12e5 | 1.18e5 | 1.51e5 | 11085 | inactive | CR11235 | 1 |
| 2.77e5 | 2.20e5 | 2.81e5 | 2.90e5 | 13988 | inactive | CG3168 | 1 |
| 1.05e5 | 1.18e5 | 1.29e5 | 1.22e5 | 11900 | inactive | CG9577 | 1 |
| 1.44e5 | 1.54e5 | 2.66e5 | 2.57e5 | 11335 | inactive | CG15772 | 1 |
| 1.47e5 | 1.78e5 | 1.57e5 | 1.24e5 | 13110 | inactive | CG4631 | 1 |
| 1.63e5 | 1.49e5 | 1.90e5 | 1.87e5 | 10485 | inactive | CG17751 | 1 |
| 89685 | 84950 | 1.31e5 | 1.36e5 | 7790 | inactive | CG31913 | 1 |
| 1.11e5 | 1.05e5 | 88545 | 76360 | 8955 | inactive | CG31689 | 1 |
| 1.04e5 | 1.08e5 | 1.03e5 | 1.01e5 | 8975 | inactive | CG7328 | 1 |
| 80125 | 91235 | 1.17e5 | 1.14e5 | 12005 | inactive | Prp5 | 1 |
| 58445 | 57345 | 46540 | 62930 | 5665 | inactive | AlaRS | 1 |
| 1.92e5 | 1.49e5 | 2.07e5 | 1.70e5 | 11710 | inactive | ETH | 1 |
| 2.31e5 | 2.29e5 | 2.93e5 | 2.84e5 | 17440 | inactive | TBC1d7 | 1 |
| 1.87e5 | 1.65e5 | 1.70e5 | 1.48e5 | 11105 | inactive | CG13562 | 1 |
| 2.17e5 | 2.13e5 | 2.21e5 | 2.14e5 | 15042 | inactive | CG6230 | 1 |
| 1.35e5 | 1.10e5 | 1.36e5 | 1.79e5 | 16300 | inactive | CG33177 | 1 |
| 2.30e5 | 1.60e5 | 2.12e5 | 2.45e5 | 7605 | inactive | Notum | 1 |
| 2.34e5 | 2.03e5 | 2.87e5 | 2.62e5 | 17635 | inactive | Inos | 1 |
| 3.09e5 | 2.23e5 | 3.32e5 | 3.32e5 | 8815 | active | CG6527 | 1 |
| 55455 | 53045 | 57600 | 43210 | 3055 | inactive | lt | 1 |
| 1.10e5 | 1.14e5 | 1.18e5 | 1.17e5 | 13120 | inactive | CG14218 | 1 |
| 2.29e5 | 2.66e5 | 2.06e5 | 2.20e5 | 18300 | inactive | CG9338 | 1 |
| 1.83e5 | 2.03e5 | 2.47e5 | 2.66e5 | 18480 | inactive | CG14882 | 1 |
| 83430 | 64160 | 65230 | 72570 | 8110 | inactive | babos | 1 |
| 1.83e5 | 2.14e5 | 1.64e5 | 1.87e5 | 13790 | inactive | babos | 2 |
| 2.31e5 | 2.28e5 | 2.88e5 | 2.76e5 | 18705 | inactive | CR40450 + CG32767 | 1 |
| 2.04e5 | 1.85e5 | 2.22e5 | 2.44e5 | 15260 | inactive | Dcr-1 | 1 |
| 1.30e5 | 1.10e5 | 96675 | 57040 | 7832 | inactive | CG14340 | 1 |
| 1.66e5 | 1.54e5 | 1.70e5 | 1.62e5 | 12990 | inactive | CG13575 | 1 |
| 1.68e5 | 1.85e5 | 1.42e5 | 1.44e5 | 11305 | inactive | vls | 1 |
| 1.77e5 | 1.60e5 | 2.17e5 | 1.82e5 | 14515 | inactive | Nepl13 | 1 |
| 80050 | 92535 | 1.41e5 | 1.27e5 | 8660 | inactive | Rtnl1 | 1 |
| 1.46e5 | 1.52e5 | 1.83e5 | 1.68e5 | 16290 | inactive | Rtnl1 | 2 |
| 1.70e5 | 1.70e5 | 1.63e5 | 1.89e5 | 18600 | inactive | Rtnl1 | 3 |
| 1.13e5 | 1.12e5 | 1.17e5 | 63695 | 10065 | inactive | CG4270 | 1 |
| 80805 | 73140 | 1.05e5 | 87215 | 7082 | inactive | CCT2 | 1 |
| 1.71e5 | 1.73e5 | 1.45e5 | 2.12e5 | 12665 | inactive | DCTN3-p24 | 1 |
| 66725 | 43340 | 69430 | 79535 | 3945 | inactive | LUBEL | 1 |
| 1.43e5 | 1.04e5 | 81225 | 24940 | 10605 | inactive | CG10274 | 1 |
| 1.76e5 | 1.72e5 | 1.65e5 | 1.49e5 | 6120 | inactive | Lcp65Ag3 | 1 |

Reagents listed above with an active call (1):
| induced reporter light, run 1, well a | induced reporter light, run 1, well b | control promoter light, run 1, well a | control promoter light, run 1, well b | uninduced reporter light, run 1, well a | Call | Target gene | reagent no. |
| --- | --- | --- | --- | --- | --- | --- | --- |
| 3.09e5 | 2.23e5 | 3.32e5 | 3.32e5 | 8815 | active | CG6527 | 1 |
